According to patent publication US20250302080A1, “SWEETNESS AND/OR FLAVOR ENHANCER” (AJINOMOTO CO., INC., priority 2022, published 2025):
Some compounds share one wording; it may come from a single statement.

How the values were obtained:
[1] = Smell added, RebA solution (Experimental Examples 17-19); conditions: acid added alone at 10000 ppb
[2] = Smell added, sucralose solution (Experimental Examples 23-24); conditions: added alone at 10000 ppb to 0.0140 wt % sucralose solution; two or more of four panel members detected smell
[3] = Smell added, aspartame solution (Experimental Example 22)
[4] = Smell added, RebM solution (Experimental Examples 20-21); conditions: acid added alone at 10000 ppb

## CCCCCCCCCCCC(=O)O [dodecanoic acid]
[1]
  smell added: added (A smell was considered to be added when two or more panel members detected a smell derived from the compound.)
[2]
  smell added: added (A smell was considered to be added when two or more panel members detected a smell derived from the compound.)

## CCCCCCCCC(=O)O [nonanoic acid]
[1]
  smell added: added (A smell was considered to be added when two or more panel members detected a smell derived from the compound.)
[3]; acid added alone at 10000 ppb
  smell added: added (A smell was considered to be added when two or more panel members detected a smell derived from the compound.)

## CCCCCCCC(=O)O [octanoic acid]
[4]
  smell added: added (A smell was considered to be added when two or more panel members detected a smell derived from the compound.)
[3]; acid added alone at 1000 ppb
  smell added: added (A smell was considered to be added when two or more panel members detected a smell derived from the compound.)
[3]; acid added alone at 10000 ppb
  smell added: added (A smell was considered to be added when two or more panel members detected a smell derived from the compound.)

## CCCCCCCCCCC(=O)O [undecanoic acid]
[1]
  smell added: added (A smell was considered to be added when two or more panel members detected a smell derived from the compound.)
[4]
  smell added: added (A smell was considered to be added when two or more panel members detected a smell derived from the compound.)
[3]; acid added alone at 10000 ppb
  smell added: added (A smell was considered to be added when two or more panel members detected a smell derived from the compound.)
[2]
  smell added: added (A smell was considered to be added when two or more panel members detected a smell derived from the compound.)
